The list shows a part of the results.
Legend:
Test in all cases: log2 fold change, soluble protein after heating vs DMSO (PISA); higher = thermal stabilisation; K562 lysate, 10 uM; active = over 0.2 and 3.5 SD of the protein, either way, in both replicates (recomputed)
[1] = compound: CCCS(=O)(=O)Nc1ccc(F)c(C(=O)c2c[nH]c3ncc(-c4ccc(Cl)cc4)cc23)c1F [vemurafenib]
In short: (§1)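 K562 pellets were dounce-homogenised in PBS pH 7.4 with 1 mM MgCl2, and the crude extract at 1 mg/mL protein was treated with 10 μM compound for 30 min. Aliquots were heated for 3 min across 48°C-58°C, pooled, and brought to 0.5% NP-40 at 4°C; soluble protein was the supernatant after 21,000xg for 90 min. Soluble protein was quantified by TMTpro 16plex LC-MS/MS with channel sums equalised, and reported as log2 fold change in thermal stability against DMSO controls, with values from duplicates.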

Amino acid sequences for entries named in this document (tags omitted). A change or cut given only in a name is not applied to a line headed by its entry.
UniProt Q96IC2: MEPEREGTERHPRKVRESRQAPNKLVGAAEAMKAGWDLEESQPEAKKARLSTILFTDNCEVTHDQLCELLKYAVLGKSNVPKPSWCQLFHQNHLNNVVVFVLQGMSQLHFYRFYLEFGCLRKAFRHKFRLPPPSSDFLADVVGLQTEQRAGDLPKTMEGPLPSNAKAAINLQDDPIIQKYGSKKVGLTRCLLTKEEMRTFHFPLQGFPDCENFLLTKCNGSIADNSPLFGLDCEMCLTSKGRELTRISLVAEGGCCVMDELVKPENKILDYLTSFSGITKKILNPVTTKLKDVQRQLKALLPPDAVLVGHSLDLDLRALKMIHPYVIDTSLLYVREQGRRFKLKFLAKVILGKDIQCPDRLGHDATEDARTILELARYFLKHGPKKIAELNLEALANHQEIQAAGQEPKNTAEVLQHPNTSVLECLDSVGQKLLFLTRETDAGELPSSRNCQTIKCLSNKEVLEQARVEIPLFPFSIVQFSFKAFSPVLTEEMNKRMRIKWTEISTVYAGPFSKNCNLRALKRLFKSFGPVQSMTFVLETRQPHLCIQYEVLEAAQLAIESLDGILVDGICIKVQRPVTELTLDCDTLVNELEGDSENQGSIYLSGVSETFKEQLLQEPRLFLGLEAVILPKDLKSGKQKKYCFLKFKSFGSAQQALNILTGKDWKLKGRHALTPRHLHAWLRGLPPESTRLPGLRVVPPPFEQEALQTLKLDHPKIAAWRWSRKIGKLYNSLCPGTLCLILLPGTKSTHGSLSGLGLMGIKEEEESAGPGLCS
UniProt P20936: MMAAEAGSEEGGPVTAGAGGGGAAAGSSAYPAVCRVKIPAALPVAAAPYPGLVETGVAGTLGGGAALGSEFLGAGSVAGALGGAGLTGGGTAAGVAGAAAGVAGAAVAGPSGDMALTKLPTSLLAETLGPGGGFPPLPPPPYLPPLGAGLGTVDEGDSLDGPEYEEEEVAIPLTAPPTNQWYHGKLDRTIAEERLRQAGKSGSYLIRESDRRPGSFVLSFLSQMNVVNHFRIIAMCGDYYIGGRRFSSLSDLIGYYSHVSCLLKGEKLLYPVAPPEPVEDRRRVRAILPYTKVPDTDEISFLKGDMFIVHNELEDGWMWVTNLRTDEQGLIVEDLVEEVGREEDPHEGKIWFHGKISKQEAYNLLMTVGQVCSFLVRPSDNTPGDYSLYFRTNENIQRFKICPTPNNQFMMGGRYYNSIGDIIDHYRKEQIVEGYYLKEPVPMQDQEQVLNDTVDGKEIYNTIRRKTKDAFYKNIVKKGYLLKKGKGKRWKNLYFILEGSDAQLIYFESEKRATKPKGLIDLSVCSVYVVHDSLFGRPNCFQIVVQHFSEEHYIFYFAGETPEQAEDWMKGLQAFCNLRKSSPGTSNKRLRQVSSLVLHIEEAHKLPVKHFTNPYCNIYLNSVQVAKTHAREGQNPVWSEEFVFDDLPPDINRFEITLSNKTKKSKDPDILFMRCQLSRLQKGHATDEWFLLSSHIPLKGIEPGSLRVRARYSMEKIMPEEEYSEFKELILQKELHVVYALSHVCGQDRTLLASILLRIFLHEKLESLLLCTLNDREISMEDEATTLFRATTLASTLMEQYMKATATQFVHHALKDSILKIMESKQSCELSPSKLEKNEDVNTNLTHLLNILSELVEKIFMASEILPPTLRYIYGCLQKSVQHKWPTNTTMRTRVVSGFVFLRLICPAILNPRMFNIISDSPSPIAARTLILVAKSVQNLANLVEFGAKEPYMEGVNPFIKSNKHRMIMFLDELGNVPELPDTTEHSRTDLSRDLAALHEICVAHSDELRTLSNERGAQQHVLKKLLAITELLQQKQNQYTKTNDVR
UniProt Q8TC12: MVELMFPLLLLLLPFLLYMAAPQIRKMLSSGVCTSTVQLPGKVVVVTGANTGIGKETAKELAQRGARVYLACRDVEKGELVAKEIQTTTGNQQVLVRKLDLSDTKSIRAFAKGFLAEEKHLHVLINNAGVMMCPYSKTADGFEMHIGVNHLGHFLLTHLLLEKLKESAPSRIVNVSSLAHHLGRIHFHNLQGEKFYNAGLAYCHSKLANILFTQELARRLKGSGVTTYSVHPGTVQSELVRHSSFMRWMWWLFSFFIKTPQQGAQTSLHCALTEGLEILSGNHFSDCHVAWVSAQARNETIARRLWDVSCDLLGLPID
UniProt Q15291, whole entry, looked up: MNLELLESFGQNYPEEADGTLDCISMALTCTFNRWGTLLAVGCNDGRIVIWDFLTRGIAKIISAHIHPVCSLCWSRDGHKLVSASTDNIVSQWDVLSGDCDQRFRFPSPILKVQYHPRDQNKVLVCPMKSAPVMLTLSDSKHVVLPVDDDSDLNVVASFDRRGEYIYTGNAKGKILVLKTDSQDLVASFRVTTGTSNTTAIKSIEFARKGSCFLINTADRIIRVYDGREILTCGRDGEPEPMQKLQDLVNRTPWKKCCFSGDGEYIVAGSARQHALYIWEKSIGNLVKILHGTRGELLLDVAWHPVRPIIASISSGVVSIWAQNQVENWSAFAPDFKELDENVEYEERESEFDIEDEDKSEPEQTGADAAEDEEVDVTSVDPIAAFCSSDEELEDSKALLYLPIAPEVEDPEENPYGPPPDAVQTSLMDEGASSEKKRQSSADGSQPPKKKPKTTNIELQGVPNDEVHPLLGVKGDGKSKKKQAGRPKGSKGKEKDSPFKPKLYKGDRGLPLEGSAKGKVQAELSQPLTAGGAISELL
UniProt Q8WWW0: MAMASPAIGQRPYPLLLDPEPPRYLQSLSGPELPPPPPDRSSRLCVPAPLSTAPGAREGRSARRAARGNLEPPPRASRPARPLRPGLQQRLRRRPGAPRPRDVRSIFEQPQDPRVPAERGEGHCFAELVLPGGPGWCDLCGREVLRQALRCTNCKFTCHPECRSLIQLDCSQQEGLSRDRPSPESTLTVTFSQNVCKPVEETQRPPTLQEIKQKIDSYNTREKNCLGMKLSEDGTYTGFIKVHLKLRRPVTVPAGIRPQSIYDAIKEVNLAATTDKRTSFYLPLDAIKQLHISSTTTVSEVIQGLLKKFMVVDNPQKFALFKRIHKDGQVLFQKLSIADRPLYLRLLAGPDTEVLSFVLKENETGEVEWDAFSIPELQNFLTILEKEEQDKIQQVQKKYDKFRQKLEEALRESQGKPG
UniProt Q14498: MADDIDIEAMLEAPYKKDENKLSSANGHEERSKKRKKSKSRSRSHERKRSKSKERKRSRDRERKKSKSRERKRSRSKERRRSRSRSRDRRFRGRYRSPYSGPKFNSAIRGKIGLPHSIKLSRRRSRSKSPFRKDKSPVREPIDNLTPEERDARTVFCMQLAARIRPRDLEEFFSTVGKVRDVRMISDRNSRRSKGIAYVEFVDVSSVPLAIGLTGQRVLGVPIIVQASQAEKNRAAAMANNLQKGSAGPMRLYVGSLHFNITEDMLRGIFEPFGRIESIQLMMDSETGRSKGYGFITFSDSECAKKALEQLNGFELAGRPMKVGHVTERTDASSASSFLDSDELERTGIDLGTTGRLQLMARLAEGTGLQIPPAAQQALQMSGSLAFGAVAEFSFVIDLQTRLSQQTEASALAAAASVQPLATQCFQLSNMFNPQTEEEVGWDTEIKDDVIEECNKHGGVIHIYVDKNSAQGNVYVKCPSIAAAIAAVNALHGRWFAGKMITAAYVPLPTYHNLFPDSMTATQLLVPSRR
UniProt Q9UBZ9: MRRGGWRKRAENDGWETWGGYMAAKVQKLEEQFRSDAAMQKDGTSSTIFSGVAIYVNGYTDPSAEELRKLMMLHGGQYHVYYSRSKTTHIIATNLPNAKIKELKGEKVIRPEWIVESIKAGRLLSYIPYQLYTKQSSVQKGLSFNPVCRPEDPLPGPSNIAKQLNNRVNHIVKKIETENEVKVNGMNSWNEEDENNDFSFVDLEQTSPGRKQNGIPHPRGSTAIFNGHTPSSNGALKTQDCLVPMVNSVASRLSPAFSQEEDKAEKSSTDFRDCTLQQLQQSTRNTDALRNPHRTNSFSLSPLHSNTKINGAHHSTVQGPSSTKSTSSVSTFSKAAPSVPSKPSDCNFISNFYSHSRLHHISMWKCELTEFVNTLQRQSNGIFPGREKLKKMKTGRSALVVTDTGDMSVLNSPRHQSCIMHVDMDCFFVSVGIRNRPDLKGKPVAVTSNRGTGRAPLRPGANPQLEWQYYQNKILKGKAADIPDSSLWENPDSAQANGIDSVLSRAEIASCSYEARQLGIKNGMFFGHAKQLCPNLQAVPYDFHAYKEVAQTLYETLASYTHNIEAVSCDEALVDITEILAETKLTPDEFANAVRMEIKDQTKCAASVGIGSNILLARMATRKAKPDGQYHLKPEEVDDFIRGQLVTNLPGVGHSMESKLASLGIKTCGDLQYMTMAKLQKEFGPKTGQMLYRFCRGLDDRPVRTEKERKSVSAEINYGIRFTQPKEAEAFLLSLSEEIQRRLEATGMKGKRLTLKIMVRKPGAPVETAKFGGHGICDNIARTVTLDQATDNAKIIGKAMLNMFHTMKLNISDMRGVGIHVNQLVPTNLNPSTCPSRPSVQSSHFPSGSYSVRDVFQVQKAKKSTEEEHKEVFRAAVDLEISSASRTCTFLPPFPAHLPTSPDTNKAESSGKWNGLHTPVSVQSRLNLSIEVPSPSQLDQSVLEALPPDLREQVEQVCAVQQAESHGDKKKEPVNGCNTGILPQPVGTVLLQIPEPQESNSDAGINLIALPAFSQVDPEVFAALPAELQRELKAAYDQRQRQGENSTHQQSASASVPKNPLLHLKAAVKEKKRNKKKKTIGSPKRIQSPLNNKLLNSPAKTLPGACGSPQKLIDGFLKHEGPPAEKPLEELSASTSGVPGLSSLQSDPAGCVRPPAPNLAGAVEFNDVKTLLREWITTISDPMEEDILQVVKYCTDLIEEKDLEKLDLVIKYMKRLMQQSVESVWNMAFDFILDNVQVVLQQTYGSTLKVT
UniProt Q02094: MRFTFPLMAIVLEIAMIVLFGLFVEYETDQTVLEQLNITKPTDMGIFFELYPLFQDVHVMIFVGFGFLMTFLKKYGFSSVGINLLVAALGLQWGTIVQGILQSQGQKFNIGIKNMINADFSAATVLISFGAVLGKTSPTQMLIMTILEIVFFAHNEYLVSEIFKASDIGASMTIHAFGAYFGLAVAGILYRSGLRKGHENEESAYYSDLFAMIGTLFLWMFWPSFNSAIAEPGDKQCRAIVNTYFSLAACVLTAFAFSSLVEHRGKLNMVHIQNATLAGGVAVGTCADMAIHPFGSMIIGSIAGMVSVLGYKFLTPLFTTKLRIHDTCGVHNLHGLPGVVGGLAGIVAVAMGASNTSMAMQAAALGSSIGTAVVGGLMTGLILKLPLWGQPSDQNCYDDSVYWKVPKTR
UniProt Q08999: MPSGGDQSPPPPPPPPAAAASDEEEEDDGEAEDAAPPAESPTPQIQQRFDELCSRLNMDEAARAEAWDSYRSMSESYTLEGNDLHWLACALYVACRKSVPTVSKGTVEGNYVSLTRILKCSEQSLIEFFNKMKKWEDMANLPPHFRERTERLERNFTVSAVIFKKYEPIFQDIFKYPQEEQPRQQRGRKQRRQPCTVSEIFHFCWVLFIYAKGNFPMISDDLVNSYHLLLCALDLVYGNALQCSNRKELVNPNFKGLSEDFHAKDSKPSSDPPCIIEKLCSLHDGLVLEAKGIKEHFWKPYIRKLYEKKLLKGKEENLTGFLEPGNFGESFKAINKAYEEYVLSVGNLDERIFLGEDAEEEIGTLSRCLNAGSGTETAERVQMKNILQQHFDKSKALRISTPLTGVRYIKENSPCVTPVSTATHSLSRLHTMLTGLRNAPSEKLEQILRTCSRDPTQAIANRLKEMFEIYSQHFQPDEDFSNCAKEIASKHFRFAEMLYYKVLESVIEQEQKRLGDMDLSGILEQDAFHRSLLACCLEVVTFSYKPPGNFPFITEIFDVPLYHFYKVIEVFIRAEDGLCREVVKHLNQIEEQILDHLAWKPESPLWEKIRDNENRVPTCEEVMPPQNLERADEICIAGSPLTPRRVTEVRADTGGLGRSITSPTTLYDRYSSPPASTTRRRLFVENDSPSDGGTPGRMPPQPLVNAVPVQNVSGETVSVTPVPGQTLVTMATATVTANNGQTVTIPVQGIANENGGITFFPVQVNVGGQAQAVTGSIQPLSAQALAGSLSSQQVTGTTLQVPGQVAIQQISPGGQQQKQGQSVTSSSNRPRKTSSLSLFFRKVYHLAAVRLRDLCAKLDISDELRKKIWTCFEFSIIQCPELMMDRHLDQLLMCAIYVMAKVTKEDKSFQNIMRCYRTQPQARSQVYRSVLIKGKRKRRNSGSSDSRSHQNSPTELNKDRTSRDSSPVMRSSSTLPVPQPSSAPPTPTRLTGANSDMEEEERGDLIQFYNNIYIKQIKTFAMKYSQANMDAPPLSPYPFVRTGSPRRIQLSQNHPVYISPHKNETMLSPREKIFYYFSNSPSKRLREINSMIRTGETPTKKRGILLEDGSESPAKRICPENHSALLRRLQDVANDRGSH

[2] = compound: CCCS(=O)(=O)Nc1ccc(F)c(C(=O)c2c[nH]c3ncc(Cl)cc23)c1F
In short: as §1

[3] = compound: CCN(CCCOc1ccc2c(Nc3cc(CC(=O)Nc4cccc(F)c4)[nH]n3)ncnc2c1)CCOP(=O)(O)O [barasertib]
In short: as §1

[4] = compound: CC[C@@H]1C(=O)N(C)c2cnc(Nc3ccc(C(=O)NC4CCN(C)CC4)cc3OC)nc2N1C1CCCC1
In short: as §1

[5] = compound: CC[C@@H]1C(=O)N(C)c2cnc(Nc3ccc(C(=O)N[C@H]4CC[C@H](N5CCN(CC6CC6)CC5)CC4)cc3OC)nc2N1C(C)C [volasertib]
In short: as §1

[6] = compound: CCn1c(C(=O)N(C2CC2)C2CC2)cc2c3c(ncn3C)c(Nc3cc(C)n(C)n3)nc21
In short: as §1

[7] = compound: CCn1cc(-c2ccnc3[nH]c(-c4cccc(CN(C)C)c4)cc23)c(-c2ccc(NC(=O)N(C)C)cc2)n1
In short: as §1

[8] = compound: CN1CCC(CNc2ccc3ncc(-c4cccc(OC(F)(F)F)c4)n3n2)CC1
In short: as §1

[9] = compound: CN1CCN(CCOc2cc(OC3CCOCC3)c3c(Nc4c(Cl)ccc5c4OCO5)ncnc3c2)CC1 [saracatinib]
In short: as §1

[10] = compound: CN1CCN(c2nc(C3=C(c4c[nH]c5ccccc45)C(=O)NC3=O)c3ccccc3n2)CC1 [sotrastaurin]
In short: as §1

Measured: log2 fold change

RBBP8 isoform 2 (UniProt Q99708)
inactive: [1] 0.002 | [2] 0.182 | [3] -0.013 | [4] 0.079 | [5] -0.019 | [6] -0.065 | [7] 0.065 | [8] -0.021 | [9] 0.018 | [10] -0.017

RECQL (UniProt P46063)
inactive: [1] 0.001 | [2] 0.015 | [3] -0.007 | [4] -0.016 | [5] -0.005 | [6] -0.013 | [7] -0.043 | [8] 0.002 | [9] 0.013 | [10] 0.006

RBM38 (UniProt Q9H0Z9)
inactive: [1] 0.024 | [2] -0.015 | [4] 0.104 | [5] 0.012 | [6] 0.095 | [7] 0.023 | [8] 0 | [9] 0.122 | [10] -0.058

REXO5 (UniProt Q96IC2)
inactive: [1] -0.027 | [3] 0 | [4] 0.003 | [6] -0.082 | [7] -0.049 | [8] 0.085 | [9] 0.026

RC3H2 (UniProt Q9HBD1)
inactive: [1] 0.236 | [2] -0.127 | [4] 0.344 | [5] 0.123 | [6] 0.081 | [7] -0.123 | [8] 0.008 | [9] 0.06 | [10] 0.112

RASA1 (UniProt P20936)
inactive: [1] -0.002 | [2] 0.026 | [3] 0.059 | [4] 0.054 | [5] -0.016 | [6] 0.004 | [7] -0.037 | [8] 0.017 | [9] -0.008 | [10] -0.025

RDH11 (UniProt Q8TC12)
inactive: [1] 0.055 | [2] 0.088 | [4] -0.115 | [5] -0.13 | [6] 0.069 | [7] -0.213 | [8] 0.082 | [9] 0.021 | [10] 0.022

RBBP5 isoform 2 (UniProt Q15291)
inactive: [1] -0.316 | [2] 0.181 | [3] -0.019 | [4] 0.045 | [5] -0.065 | [6] 0.133 | [9] 0.022 | [10] 0.029

RASSF5 (UniProt Q8WWW0)
inactive: [1] 0.032 | [2] 0.043 | [3] 0.029 | [4] 0.047 | [5] -0.052 | [6] -0.062 | [7] 0 | [8] 0.225 | [9] -0.008 | [10] 0.019

RBM39 (UniProt Q14498)
inactive: [1] 0.034 | [2] 0.057 | [3] 0.015 | [4] -0.096 | [5] -0.008 | [6] -0.005 | [7] 0.043 | [8] -0.054 | [9] -0.005 | [10] 0.007

REV1 (UniProt Q9UBZ9)
inactive: [1] -0.156 | [2] 0.033 | [3] -0.102 | [4] -0.156 | [5] 0.004 | [6] 0.032 | [7] 0.049 | [8] -0.023 | [9] 0.003 | [10] 0.002

RBBP7 (UniProt Q16576)
inactive: [1] 0.044 | [2] -0.021 | [3] -0.072 | [4] -0.017 | [5] -0.004 | [6] -0.002 | [9] 0.021 | [10] 0.043

RHAG (UniProt Q02094)
inactive: [1] -0.032 | [2] -0.116 | [3] 0.054 | [4] -0.16 | [5] 0.053 | [6] -0.003 | [8] 0.121 | [9] 0.053 | [10] 0.029
active: [7] -0.413

REPIN1 isoform 4 (UniProt Q9BWE0)
inactive: [1] 0.016 | [2] 0.041 | [3] -0.012 | [4] 0.023 | [5] -0.058 | [6] -0.054 | [7] -0.094 | [8] 0.016 | [9] 0 | [10] 0.038

Looked up one by one from the list above (2):
RBBP7 (UniProt Q16576)
inactive: [1] 0.044 | [2] -0.021 | [3] -0.072 | [4] -0.017 | [5] -0.004 | [6] -0.002 | [9] 0.021 | [10] 0.043

RC3H2 (UniProt Q9HBD1)
inactive: [1] 0.236 | [2] -0.127 | [4] 0.344 | [5] 0.123 | [6] 0.081 | [7] -0.123 | [8] 0.008 | [9] 0.06 | [10] 0.112

More results follow:

RETSAT (UniProt Q6NUM9)
inactive: [1] 0.115 | [2] 0.039 | [3] 0.076 | [4] 0 | [5] -0.087 | [6] -0.297 | [7] -0.318 | [8] 0.116 | [9] 0.108 | [10] -0.119

RBL2 (UniProt Q08999)
inactive: [2] 0.077 | [3] -0.021 | [4] -0.07 | [5] -0.125 | [6] -0.043 | [7] -0.071 | [8] 0.137 | [9] -0.019 | [10] -0.07

From the supplement of paper PMC10849652
